Results published in PubChem BioAssay AID2002 (Broad Institute, 2009).
The other results are listed elsewhere or left out. Results with a measured potency or affinity are listed apart. Where no call is shown, the source marks the result inconclusive.

Assay: PubChem AID 2002
Details: H4 neuroglioma luciferase reporter, luminescence activation; at 12 µM (top of the series) unless noted

Row | Structure (SMILES) | activation
1 | CN=c1scc(-c2ccco2)n1/N=C/c1ccc(O)c(O)c1 | 126%
2 | CCCn1c(C)cc(C(=O)COc2ncnc3sccc23)c1C | 54.4%
3 | Nc1nn(-c2cccc(F)n2)cc1-c1ccccc1 | 46%
4 | Nc1ncn([C@H]2C[C@H](O)[C@@H](CO)O2)c(=O)n1 | 109%
5 | O=c1c(Cl)c(NCCCO)cnn1-c1nc2ccccc2[nH]1 | 99.1%
6 | CCSc1ncc(/C=N/Nc2ccc([N+](=O)[O-])cc2)n1C | 126%
7 | COc1ccc(NC(=O)NC(=O)c2ccccc2)cc1 | 78.4%
8 | Cc1ccc(/C=N/N=C/c2ccc(C)s2)s1 | 89.1%
9 | COc1ccccc1C(=O)COC(=O)c1ccc(N(C)C)cc1 | 143%
10 | CC(C)(C)c1ccc(OCCn2ccccc2=O)cc1 | 103%
11 | COc1ccc(N/C=C\C(=O)c2ccc3c(c2)OCO3)cc1 | 164% [at 6 µM]
12 | CCOC(=O)c1c(C)[nH]c(C2=NNC(=NC(C)COC)SC2)c1C (stereo not drawn) | 40.9%
13 | Cc1ccccc1Nc1nc(N)nc(CSc2ccc(F)cc2)n1 | 143%
14 | N#Cc1ccsc1NC(=O)COC(=O)c1ccc2ccccc2c1 | 129%
15 | Cc1ccc(C2=CSC3=NNC4(CCCCC4)NN23)cc1 | 131%
16 | Clc1ccc2nc(CSCc3ccccc3)cn2c1 | 141% [at 6 µM]
17 | Cc1ccc(-n2c(C)cc(C(=O)COC(=O)c3ccc[nH]c3=O)c2C)cc1 | 105% [at 3 µM]
18 | CCc1ccc(NC(=O)c2ccccc2NC(=O)C2CCCO2)cc1 (stereo not drawn) | 97.8%
19 | COc1ccc(-n2ncc3c(N4CCc5ccccc54)ncnc32)cc1 | 43.1%
20 | CCN1C(=S)SC(=O)C1=C1C=C(C)N(CCO)C(C)=C1 | 70%
21 | c1ccc(N2CCN(c3nc4cc5c(cc4s3)OCCO5)CC2)cc1 | 87.5%
22 | c1csc(C2=NNC(=NC3CCCCC3)SC2)c1 | 70.7%
23 | CC(C)(C)C1CCc2c(sc3nc(SCC(N)=O)nc(N)c23)C1 (stereo not drawn) | 107%
24 | CC1CCc2c(sc(NC(=O)c3nc4ncccn4n3)c2C#N)C1 (stereo not drawn) | 92.4%
25 | CN(C)/C=N/c1cnc(C(=O)c2ccc(Cl)cc2)n1C | 122%

Row | Structure (SMILES) | activation
26 | O=C(Nc1ccc2ccccc2n1)c1ccccc1Br | 203% [at 6 µM]
27 | O=C(Cc1nc2ccccc2[nH]c1=O)c1ccccc1 | 95%
28 | Cc1cc(/C=C2/C(=O)NN(c3ccccc3)C2=O)c(C)n1-c1ccc(O)cc1 | 51.2%
29 | CCOc1ccc(-c2cc(C(=O)N/N=C(\C)c3cccnc3)c3ccccc3n2)cc1 | 32.9%
30 | Cc1ccc2c(CC(=O)N3CCc4ccccc43)coc2c1 | 125%
31 | COc1ccc(-n2nnnc2-c2nc3ccccc3s2)cc1 | 17.5%
32 | O=C(N/N=C/c1sc(=O)n(-c2ccccc2)c1Cl)c1ccccc1 | 142% [at 6 µM]
33 | Clc1c(CSc2nc3ccccc3o2)nc2ccccn12 | -32.6%
34 | O=C(Nc1cnc2ccccc2c1)N1CCCCC1 | 16%
35 | COc1ccc(C2=NN(CN3C(=O)C(=O)c4ccccc43)C(c3ccc(OC)cc3)C2)cc1 (stereo not drawn) | 214%
36 | CC(C)c1ccc(-c2cc(C(=O)N3N=C(C(F)F)CC3(O)C(F)F)c3ccccc3n2)cc1 (stereo not drawn) | 45%
37 | Cc1cc2cc(OCc3ccccc3)ccc2n1C | 151%
38 | CCOC(=O)CSc1nc(-c2ccncc2)ccc1C#N | 61.9%
39 | CC(=O)N(/N=C1\Sc2ccccc2C1=O)c1ccccc1C | 162%
40 | Cc1ccc(C(=O)OCC(=O)c2cc(C)n(CC3CCCO3)c2C)cc1 (stereo not drawn) | 82.5%
41 | N/C(=N\OC(=O)/C=C/c1ccccc1Cl)c1cccnc1 | 214%
42 | Cc1cc(C(=O)CSc2nnnn2-c2ccccc2)c(C)n1CC1CCCO1 (stereo not drawn) | 104%
43 | O=C1CCCc2nc3c(cc21)C(O)Oc1c-3ccc2ccccc12 (stereo not drawn) | 78%
44 | Cc1[nH]c2ccccc2c1C(=O)/C=C/c1ccccc1Cl | 139%
45 | CC1(C)Cc2c(sc(NC(=O)Nc3ccccc3)c2C(N)=O)CO1 | 120%
46 | Cc1ccc(N=Nc2c(N)n(-c3ccccc3)[nH]c2=O)cc1 | 175%
47 | Cc1cc(C(=O)NC2CCCCC2)c(C)n1-c1ccc(F)cc1 | 83.7%
48 | COC(=O)Cc1c(OC)ccn(CCc2c[nH]c3ccccc23)c1=O | 111%
49 | Cc1ccsc1C(=O)Nc1ccc(OCc2ccccc2)cc1 | 178% [at 6 µM]
50 | O=C(c1cnn(-c2ccc(Cl)cc2)c1)c1ccccc1O | 32.7%

Row | Structure (SMILES) | activation
51 | Cc1cc(-c2n[nH]c(=S)o2)c(C)n1-c1ccccc1 | 101%
52 | CCc1sc(C(=O)Nc2ccc3c(c2)OCCO3)cc1Br | 186% [at 6 µM]
53 | O=C(Nc1ccc(Cl)cc1)c1ccc(OCC2CCCO2)cc1 (stereo not drawn) | 124%
54 | CC(C)(C)c1ccc(NC(=O)Nc2ccc(F)cc2)cc1 | 149%
55 | O=C(Cc1nc(=O)c2ccccc2s1)Nc1ccccc1 | 104%
56 | O=C(Nc1nccs1)c1cc2c(s1)-c1ccccc1OC2 | 171%
57 | COc1ccccc1C(=O)Nc1nnc(SCC(=O)NCC2CCCO2)s1 (stereo not drawn) | 75.8%
58 | O=c1c(Cl)c(N/N=C/c2ccc(Cl)cc2)cnn1-c1ccccc1 | 66.1%
59 | COCCNC(=O)/C(C#N)=C/c1cc(C)n(C2CCCCC2)c1C | 51.6%
60 | Cc1ccc2nc(C3CCCCC3)[nH]c2c1 | 113%
61 | CCOc1cccc(-c2csc(C3COc4ccccc4O3)n2)c1 (stereo not drawn) | 139%
62 | COc1ccc(/C(O)=C2/C(=O)C(=O)N(c3ccccn3)C2c2ccc(C(C)C)cc2)cc1 (stereo not drawn) | 131%
63 | CCS(=O)(=O)c1nnnn1-c1ccccc1S(C)(=O)=O | 40.5%
64 | Cc1ccc(N=c2c([N+](=O)[O-])nn(-c3ccccc3)n2O)c(C)c1 | 138%
65 | O=C(Nc1cc(-c2ccccc2)[nH]n1)c1ccccc1F | 156% [at 6 µM]
66 | CCN1/C(=C\c2ccc3ccccc3[n+]2CC)Sc2cc(C)ccc21 | -94.7%
67 | O=C(Nc1ccccc1)N1CC=C(c2ccccc2)CC1 | 87.5%
68 | Clc1nc(-c2ccccn2)nc2scc(-c3ccccc3)c12 | 69.1%
69 | O=C(Nc1ncccc1O)c1ccc(Oc2ccccc2)cc1 | 55.7%
70 | O=[N+]([O-])c1cccn2cc(-c3ccc(Br)cc3)nc12 | 210%
71 | Cc1c(C(=O)Nc2ccccc2[N+](=O)[O-])csc1-c1ccccc1 | 42.4%
72 | O=C(CCCc1ccccc1)NC12CC3CC(CC(C3)C1)C2 | 204%
73 | c1ccc2nc(-c3ccc(-n4ccnc4)cc3)ccc2c1 | 19.4%

Gathered by group, the entries above containing fluorine (6)
Row | Structure (SMILES) | activation
3 | Nc1nn(-c2cccc(F)n2)cc1-c1ccccc1 | 46%
13 | Cc1ccccc1Nc1nc(N)nc(CSc2ccc(F)cc2)n1 | 143%
36 | CC(C)c1ccc(-c2cc(C(=O)N3N=C(C(F)F)CC3(O)C(F)F)c3ccccc3n2)cc1 (stereo not drawn) | 45%
47 | Cc1cc(C(=O)NC2CCCCC2)c(C)n1-c1ccc(F)cc1 | 83.7%
54 | CC(C)(C)c1ccc(NC(=O)Nc2ccc(F)cc2)cc1 | 149%
65 | O=C(Nc1cc(-c2ccccc2)[nH]n1)c1ccccc1F | 156% [at 6 µM]
